Test results reported in article PMC6372160, “Biophysical and structural characterization of a zinc-responsive repressor of the MarR superfamily” (PLoS ONE, 2019).
No constants are given. Whether binding was seen depends on the method and setting. Some binding calls cover weakened binding; strength is not graded here. Tags and fused reporters may be left off the sequences shown.

Key:
[1] = molecular target: ZitR protein of Lactococcus lactis subspecies cremoris strain MG1363, untagged recombinant (S2A, A4R, D8E) form (Lactococcus lactis subsp. cremoris strain MG1363) (UniProt A2RNS2); assay: SEC-MALS; 50 ul of fully purified protein at approximately 1-4 mg/ml on a KW-803 column (Shodex), 0.5 ml/min, supplemented with 1 mM EDTA; both purified
[2] = molecular target: ZitR protein of Lactococcus lactis subspecies cremoris strain MG1363, untagged recombinant (S2A, A4R, D8E) form (Lactococcus lactis subsp. cremoris strain MG1363) (UniProt A2RNS2); assay: crystal structure; holo-ZitRMG, dimeric form, space group P41, 8 molecules (four dimers) and 16 Zn(II) in the asymmetric unit, 2.8 Å; both purified

binding [1]: binds
binding [2]: binds
B1: ZitR protein of Lactococcus lactis subspecies cremoris strain MG1363, untagged recombinant (S2A, A4R, D8E) form (natural protein, UniProt A2RNS2 1-145, looked up)
chain: MALRNQIEQFLGAIMQFAENKHEILLGECESNVKLTSTQEHILMILAAEVSTNARIAEQLKISPAAVTKALKKLQEQELIKSSRATNDERVVLWSLTEKAIPVAKEHAAHHEKTLSTYQELGDKFTDEEQKVISQFLSVLTEEFR
notes: A minor tetrameric form was also seen at the end of the purification; also called ZitRMG; holo-ZitRMG
